# Laboratory results: PMC10939015
# No constants are given. Whether binding was seen depends on the method and setting. Binding seen in cells or lysates may run through a third protein. Some entries that bind do so weakly or less than the wild type.
# Molecular target: PCNA (human (endogenous in HeLa Kyoto)), P12004
# Assay: proximity ligation; Duolink in situ PLA (anti-rabbit PLUS and anti-mouse MINUS probes) on fixed HeLa Kyoto cells, S-phase cells; control, or 10 mM HU for 1 h, or 150 µM APH for 30 min before fixation
# Conditions: remark: other sources report otherwise
binder,measurement,value
"Timeless, Q9UNS1 1-1208 (protein) MDLHMMNCELLATCSALGYLEGDTYHKEPDCLESVKDLIRYLRHEDETRDVRQQLGAAQILQSDLLPILTQHHQDKPLFDAVIRLMVNLTQPALLCFGNLPKEPSFRHHFLQVLTYLQAYKEAFASEKAFGVLSETLYELLQLGWEERQEEDNLLIERILLLVRNILHVPADLDQEKKIDDDASAHDQLLWAIHLSGLDDLLLFLASSSAEEQWSLHVLEIVSLMFRDQNPEQLAGVGQGRLAQERSADFAELEVLRQREMAEKKTRALQRGNRHSRFGGSYIVQGLKSIGERDLIFHKGLHNLRNYSSDLGKQPKKVPKRRQAARELSIQRRSALNVRLFLRDFCSEFLENCYNRLMGSVKDHLLREKAQQHDETYYMWALAFFMAFNRAASFRPGLVSETLSVRTFHFIEQNLTNYYEMMLTDRKEAASWARRMHLALKAYQELLATVNEMDISPDEAVRESSRIIKNNIFYVMEYRELFLALFRKFDERCQPRSFLRDLVETTHLFLKMLERFCRSRGNLVVQNKQKKRRKKKKKVLDQAIVSGNVPSSPEEVEAVWPALAEQLQCCAQNSELSMDSVVPFDAASEVPVEEQRAEAMVRIQDCLLAGQAPQALTLLRSAREVWPEGDVFGSQDISPEEEIQLLKQILSAPLPRQQGPEERGAEEEEEEEEEEEEELQVVQVSEKEFNFLDYLKRFACSTVVRAYVLLLRSYQQNSAHTNHCIVKMLHRLAHDLKMEALLFQLSVFCLFNRLLSDPAAGAYKELVTFAKYILGKFFALAAVNQKAFVELLFWKNTAVVREMTEGYGSLDDRSSSRRAPTWSPEEEAHLRELYLANKDVEGQDVVEAILAHLNTVPRTRKQIIHHLVQMGLADSVKDFQRKGTHIVLWTGDQELELQRLFEEFRDSDDVLGHIMKNITAKRSRARIVDKLLALGLVAERRELYKKRQKKLASSILPNGAESLKDFCQEDLEEEENLPEEDSEEEEEGGSEAEQVQGSLVLSNENLGQSLHQEGFSIPLLWLQNCLIRAADDREEDGCSQAVPLVPLTEENEEAMENEQFQQLLRKLGVRPPASGQETFWRIPAKLSPTQLRRAAASLSQPEEEQKLQPELQPKVPGEQGSDEEHCKEHRAQALRALLLAHKKKAGLASPEEEDAVGKEPLKAAPKKRQLLDSDEEQEEDEGRNRAPELGAPGIQKKKRYQIEDDEDD",binding,binds
